Source: PubChem BioAssay AID1347076 (National Center for Advancing Translational Sciences (NCATS), 2019)
Values joined by “and” are separate entries in the source; they are usually repeats but may differ in a detail not shown here. Equal entries are not always repeated. The campaign covered roughly 400,000 compounds. About 13,000 (3.2%) were called active. Inconclusive means that the source gave no clear call. Such entries were picked first, then a sample of the others. Calls follow the shape of the dose curve; as a rule, active = well fitted cell-killing curve with a large enough effect; inconclusive = small, poorly fitted or top-dose-only effect, or effect the other way; inactive = flat fitted curve, though single readings scatter. Where the call is inconclusive, the potency comes from a doubtful curve fit.

Experiment: qHTS assay for MDR1-selective chemotherapeutics: Primary screen using the drug-selected MDR subline cells KB-V1; also: nearly all actives have a fitted effect of over 60% in size
Conditions: KB-V1 MDR cells viability, CellTiter-Glo, 72 h; activity change, negative = cytotoxicity: at 46.1 µM (top of the series)
Procedure, shortened: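 Cytotoxicity toward P-gp-expressing KB-V1 cells was determined as loss of CellTiter-Glo luminescence after 72 h at 37 degrees C. Compounds were tested in quantitative HTS format across a concentration range, with curves fitted to normalized data.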
% is scaled to controls: 0 for no effect and ±100 for the full control effect; potency is read from the fitted curve at half-maximal effect.

SMILES	Potency	activity change, negative = cytotoxicity
Cc1onc(-c2c(F)cccc2Cl)c1C(=O)NC(C)c1ccccc1 (stereo not given)	inconclusive: 14.6 µM [cytotoxic, single point]	–
COc1ccc(S(=O)(=O)N2CCC(n3cnc4cc(C(F)(F)F)ccc43)CC2)cc1	–	inactive: -19%
COc1ccccc1OCCCOc1ccc(C)cc1Br	–	inactive: -13.5%
O=C(NCCc1ccccc1)C(c1ccccc1F)N(C(=O)c1csnn1)C1CC1 (stereo not given)	inconclusive: 0.92 µM [rising, single point]	–
O=C(Nc1ccc2c(c1)C(=O)NC2=O)c1ccc(Cl)s1	inconclusive: 29.1 µM [rising, single point]	–
CC1(C)N=C(N)N=C(N)N1c1ccccc1	inconclusive: 29.1 µM [rising, single point]	–
COc1ccc(S(=O)(=O)N2CCN(CCOc3ccc(Br)cc3)CC2)cc1OC	–	inactive: 6.37%
COc1ccc(OC)c(NC(=O)CSc2nc3n[nH]c(C)c3c(=N)n2-c2cccc(Cl)c2C)c1	inconclusive: 18.4 µM [cytotoxic, single point]	–
CN(CC(=O)Nc1cccc(F)c1)C(=O)c1ccccc1CCc1ccccc1	inconclusive: 11.6 µM [cytotoxic, partial curve]	–
CC(C)Oc1ccc(CC(=O)NNC(=S)Nc2ccccc2)cc1	inconclusive: 23.1 µM [cytotoxic, single point]	–
COCCn1c(SCC(=O)NC(=O)Cc2ccccc2)nc2ccccc2c1=O	inconclusive: 2.59 µM [rising, partial curve]	–
CCCC(=O)N1CCCC(c2cc(C(=O)NCc3ccccc3)no2)C1 (stereo not given)	–	inactive: -6.24%
O=C(Cn1cnc2ccccc2c1=O)OCCCCN1C(=O)c2ccccc2C1=O	inconclusive: 18.4 µM [cytotoxic, single point]	–
O=C(NC(=S)NC1CCCCC1)c1ccccc1[N+](=O)[O-]	inconclusive: 0.206 µM [cytotoxic, partial curve, poor fit]	–
CC(=O)C1C(c2cccc(Oc3ccccc3)c2)NC(=O)NC1(O)C(F)(F)F (stereo not given)	inconclusive: 23.1 µM [cytotoxic, single point]	–
CCC1=Nc2cc(C(=O)NCc3ccccc3Cl)ccc2Sc2ccc(C)cc21	inconclusive: 3.66 µM [cytotoxic, full curve, poor fit]	–
CN(C)CCCNC(=S)N(CCO)Cc1cc2cc3c(cc2[nH]c1=O)OCO3	inconclusive: 20.6 µM [rising, single point]	–
O=C(CSc1nncn2c1cc1occc12)Nc1ccccc1C(F)(F)F	–	inactive: 17.7%
CN(C)c1ccc(/C=C/c2ccc3ccccc3n2)cc1	inconclusive: 18.4 µM [cytotoxic, partial curve, poor fit] and active: 7.31 µM	–
CCc1cccc(NC(=O)CCNS(=O)(=O)c2ccc3c(c2)oc(=O)n3C)c1	inconclusive: 32.6 µM [rising, single point]	–
CCOCCCNC(=O)CN1C(=O)CSc2cc(S(=O)(=O)N3CCCCCC3)ccc21	inconclusive: 7.31 µM [cytotoxic, partial curve]	–
N#Cc1cccc(Nc2ncnc3c2cnn3-c2cccc(Cl)c2)c1	inconclusive: 25.9 µM [cytotoxic, partial curve, poor fit]	–
COc1ccc(/C=N/NC(=O)c2nn(-c3ccc(C)c(C)c3)c(=O)c3ccccc23)cc1	–	inactive: 0%
Cc1ccc(Cl)cc1-n1ncc2c(NC3CCCCC3)ncnc21	inconclusive: 29.1 µM [cytotoxic, single point]	–

Sorted by length of the SMILES (low to high): 4 of the compounds above.
SMILES	Potency	activity change, negative = cytotoxicity
COc1ccccc1OCCCOc1ccc(C)cc1Br	–	inactive: -13.5%
CC(C)Oc1ccc(CC(=O)NNC(=S)Nc2ccccc2)cc1	inconclusive: 23.1 µM [cytotoxic, single point]	–
O=C(CSc1nncn2c1cc1occc12)Nc1ccccc1C(F)(F)F	–	inactive: 17.7%
CCc1cccc(NC(=O)CCNS(=O)(=O)c2ccc3c(c2)oc(=O)n3C)c1	inconclusive: 32.6 µM [rising, single point]	–

Next part:

SMILES	Potency	activity change, negative = cytotoxicity
CC(C)NC(=O)c1cc(-c2ccc(Br)cc2)on1	–	inactive: 0.534%
CCOC(=O)C1=CCC(c2cc3ccccc3[nH]2)NC1 (stereo not given)	inconclusive: 18.4 µM [cytotoxic, single point]	–
CC(=O)c1cc(-c2ccccc2)n(CCC(=O)NC2CCCCCCC2)c1C	–	inactive: 0%
CCOC(=O)c1c(CN2CCN(c3ccccc3)CC2)oc2ccc(O)cc12	–	inactive: 1.09%
Cc1ccccc1N1CC(C(=O)Nc2ccc(S(=O)(=O)N3CCCCC3)cc2)CC1=O (stereo not given)	–	inactive: -12.7%
COc1ccc(-c2nc(C#N)c(N3CCCCCC3)o2)cc1	inconclusive: 14.6 µM [cytotoxic, partial curve]	–
CCc1ccc(S(=O)(=O)c2cnc3ccc(OC)cc3c2N2CCCC(C)C2)cc1 (stereo not given)	inconclusive: 18.4 µM [cytotoxic, partial curve, poor fit]	–
O=C1CN(C(=O)COC(=O)c2cccs2)c2ccccc2N1	inconclusive: 29.1 µM [rising, single point]	–
Cc1noc(/C=C/c2ccc(-c3ccccc3Cl)o2)c1[N+](=O)[O-]	–	inactive: 12%
COC(C[C@H]1O[C@H]1[C@H](O)[C@H](C)OCc1ccccc1)OC	–	inactive: -4.81%
CCOc1ccc(C(C)=O)cc1CN1C(=O)c2ccccc2S1(=O)=O	inconclusive: 18.4 µM [cytotoxic, partial curve, poor fit]	–
CCOc1ccc(CCNC(=O)Cc2ccc(S(=O)(=O)N3CCOCC3)s2)cc1OCC	inconclusive: 23.1 µM [cytotoxic, single point]	–
CCCc1nc2nc(C)c(NS(=O)(=O)c3ccc(F)cc3)c(=O)n2[nH]1	inconclusive: 29.1 µM [rising, single point]	–
CCCCCCn1cc(CN2CC(N3CCCC3)CS2(=O)=O)nn1 (stereo not given)	inconclusive: 32.6 µM [rising, single point]	–
COCCN(C(=S)Nc1cccc(C)c1)C(C)c1cccnc1 (stereo not given)	–	inactive: -12%
O=C(Nc1ccc2c(c1)C(=O)N(CC1CCCO1)C2=O)c1ccccc1Br (stereo not given)	–	inactive: 11.3%
C=CC[C@H](CC(=O)N(CCO)Cc1ccccc1)C(=O)N[C@@H](C)COC(=O)[C@H](CC=C)CC(=O)OC(C)(C)C	–	inactive: -4.36%
CC(=O)Nc1ccc(NC(=O)CCN2C(=O)C3CC=CCC3C2=O)cc1 (stereo not given)	inconclusive: 29.1 µM [rising, single point]	–
O=C(Cc1cccs1)Nc1cccc(-c2nnc(-c3ccco3)o2)c1	inconclusive: 29.1 µM [cytotoxic, single point]	–
O=C(O)c1cc([N+](=O)[O-])ccc1N1CCCCC1	–	inactive: -6.14%
O=C(c1ccoc1)N1CCN(c2cc(-c3ccccc3)nc3cc(-c4ccccc4)nn23)CC1	inconclusive: 29.1 µM [cytotoxic, single point]	–
O=C(Oc1ccc2ccccc2c1)c1ccco1	inconclusive: 10.3 µM [rising, partial curve, poor fit]	–
CCN1C(=O)c2cccc3c(NC(=O)c4ccc5c(c4)OCCO5)ccc1c23	–	inactive: -27.2%
CCOC(=O)c1cccc(NC(=O)CNS(=O)(=O)c2cccs2)c1	active: 23.1 µM	–

SMILES	Potency	activity change, negative = cytotoxicity
Cc1cc(Cl)ccc1C(=O)C1CCCN(C(=O)c2ccc3c(c2)OCO3)C1 (stereo not given)	inconclusive: 29.1 µM [cytotoxic, single point]	–
CC(=O)c1ccc(OCCNS(=O)(=O)c2ccc(-n3cnnn3)c(C)c2)cc1	–	inactive: -7.75%
O=C(Nc1ccccc1)/C(=C/c1cccnc1)NC(=O)c1ccccc1	inconclusive: 0.231 µM [rising, full curve]	–
COC(=O)Cc1sc(-c2ccccn2)nc1-c1ccccc1	inconclusive: 2.59 µM [rising, full curve]	–
COc1cccc(-c2nc(NCCN3CCOCC3)c3ccccc3n2)c1O	inconclusive: 31.6 µM [cytotoxic, single point]	–
Cc1ccnc(NS(=O)(=O)c2ccc(NS(=O)(=O)c3ccc(Br)cc3)cc2)n1	–	inactive: 2.48%
CCOc1ccc(OCCCC(=O)NNC(=O)c2ccncc2)cc1	–	inactive: 0%
COc1cc2c(cc1NC(=S)Nc1cccc(C(F)(F)F)c1)oc1ccccc12	inconclusive: 20.6 µM [cytotoxic, single point]	–
CCOc1ccccc1NC(=O)C(c1ccccc1)N1CCN(CC(=O)N2CCOCC2)CC1 (stereo not given)	inconclusive: 0.0046 µM [cytotoxic, full curve, poor fit]	–
CCOC(=O)C1CCN(c2c(Nc3cc(C)cc(C)c3)c(=O)c2=O)CC1	inconclusive: 3.66 µM [cytotoxic, partial curve, poor fit]	–
O=C(Nc1cccc(F)c1)c1ccc(S(=O)(=O)NCC2CCCO2)cc1 (stereo not given)	active: 16.4 µM	–
Cc1ccc(F)cc1C(=O)N1CCCC1(C)C(=O)NCC(C)C (stereo not given)	–	inactive: 5.43%
COc1cc2c(cc1OC)C(c1ccccc1C(F)(F)F)CC(=O)N2 (stereo not given)	–	inactive: 0%
CCOc1cc(N2CCOCC2)c(OCC)cc1NC(=O)COC(=O)c1ccc([N+](=O)[O-])o1	inconclusive: 0.0116 µM [rising, full curve, poor fit]	–
CCC(CC)C(=O)Nc1cccc(C(=O)Nc2ccc(S(=O)(=O)Nc3ccc(C)cc3)cc2)c1	inconclusive: 18.4 µM [cytotoxic, single point]	–
NS(=O)(=O)c1ccc(CCNC(=O)COC(=O)C2CCC2)cc1	–	inactive: 21.1%
O=C(CN1C(=O)c2ccccc2C1=O)Oc1ccc(Cl)cc1	inconclusive: 13 µM [rising, partial curve]	–
Cc1ccc(S(=O)(=O)NCc2ccccc2NS(=O)(=O)c2ccc(C)cc2)cc1	inconclusive: 9.2 µM [cytotoxic, partial curve]	–
O=C(NCc1ccco1)C(=O)NCC1OCCN1C(=O)c1ccc(Cl)cc1 (stereo not given)	–	inactive: -10.6%
COc1ccccc1-c1cnc(C(O)c2ccc(F)cc2C)[nH]1 (stereo not given)	inconclusive: 16.4 µM [cytotoxic, partial curve]	–
COC(=O)c1cc(NC(=O)C2CCCN(S(=O)(=O)c3c(C)n[nH]c3C)C2)cc(C(=O)OC)c1 (stereo not given)	inconclusive: 29.1 µM [rising, single point]	–
CC(C)C[C@H]1CN(CCCC[C@@H]2CNC(=O)C(=O)N2CC2CCCCC2)C(=O)C(=O)N1CCC1CCCCC1	inconclusive: 20.6 µM [rising, single point]	–

As a short view, part of the list above.
SMILES	Potency	activity change, negative = cytotoxicity
O=C(c1ccoc1)N1CCN(c2cc(-c3ccccc3)nc3cc(-c4ccccc4)nn23)CC1	inconclusive: 29.1 µM [cytotoxic, single point]	–
O=C(Oc1ccc2ccccc2c1)c1ccco1	inconclusive: 10.3 µM [rising, partial curve, poor fit]	–
